Assay results from publication PMC11429574, “Biophysical and Solution Structure Analysis of Critical Residues Involved in the Interaction between the PupB N-Terminal Signaling Domain and PupR C-Terminal Cell Surface Signaling Domain from Pseudomonas capeferrum” (Biomolecules, 2024).
Results are given in words; binding and its absence hold for the method and conditions named. Where a sequence is shown, tags or fusion partners need not be part of it.

Target: T1, PupB N-terminal signaling domain L74A (Pseudomonas capeferrum) (UniProt P38047)
T1 sequence: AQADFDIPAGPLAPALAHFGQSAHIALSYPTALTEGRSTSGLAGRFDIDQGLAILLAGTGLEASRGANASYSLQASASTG
Assay: condition: 140-230 µM MBP-PupR CCSSD titrated into 20-70 µM PupB NTSD mutant; ITC; MBP-PupR CCSSD (140-230 µM) titrated into PupB NTSD mutants (20-70 µM); 15 °C; 25 mM HEPES pH 7.5, 400 mM LiCl, 10% glycerol; triplicate, global single-site analysis (NITPIC, SEDPHAT); both purified

binding: no binding
B1: MBP-PupR C-terminal cell surface signaling domain (domain or fragment, Pseudomonas capeferrum)
chain: QDWRADYHSRIGEQRRLTLADGTQVQLNTDSALNVAFDQQARRLRLVRGEMLITRPALADSRPLWVDTEHGRLESTLAQFNVRLHGQHTQATVYQGSVALQPALHAYPPILLGAGEQASFNQQGLLARQAVAAVAPAWSQGMLVAQGQPLAAFIEDLARYRRGHLACDPALAGLRVSGTFPLENTDKIIAAVAETLQLEVQHFTRYWVTLKPRMA
notes: PupR, inner membrane sigma regulator (anti-sigma factor) of Pseudomonas capeferrum; periplasmic C-terminal cell surface signaling domain; residues A240 to A300 are named as interface residues; A TEV site lies between MBP and the domain; the MBP fusion was used uncleaved in the ITC for solubility and stability; also called MBP-PupR CCSSD; PupR CCSSD; not shown: MBP, N-terminal, kept
